Patent US20250144228A1, “NANOBODY-DRUG ADDUCTS AND USES THEREOF” (priority 2022, published 2025)
Results are given in words; binding and its absence hold for the method and conditions named. For some of these results: Binding calls can cover weak binding; strength is not graded here.

How the values were obtained:
[1] = target: purified MICA*009 (soluble, recombinant; extracellular domain of MICA) (human); test: immunoblot of whole cell lysate spiked with purified MICA*009, streptavidin-HRP
[2] = target: purified MICA*009 (soluble, recombinant; extracellular domain of MICA) (human); test: immunoblot
[3] = target: MICA*008 variant (ELISA) (human); test: ELISA on MICA allelic products
[4] = target: MICA*002 variant (ELISA) (human); test: ELISA on MICA allelic products
[5] = target: purified MICA*009 (soluble, recombinant; extracellular domain of MICA) (human); test: ELISA on MICA allelic products

Row | Binder | binding [1] | binding [2] | binding [3] | binding [4] | binding [5]
1 | anti-MICA VHH nanobody clone A1 (VHH) VHH: QVQLVESGGGLVQPGGSLRLSCAASGFTLDYYDIGWFRQAPGKEREGVSCITSSDGSTYYADSVKGRFTISRDNAKNTVYLQMNSLKPEDTAVYYCAADCTKPQWKSKTEAWGQGTQVTVSS | binds | binds | binds | no binding | binds
2 | anti-MICA VHH nanobody clone B11 (VHH) VHH: QVQLVETGGGLVQPGGSLRLSCAASGFTLDYYAIGWFRQAPGKEREGVSCITSDGNTYYADSVKGRFTISRDNAKNTVYLQMNSLKPEDTAVYYCAADCLSSTWRTNAYLGQGTQVTVSS |  |  | binds | no binding | binds

Further lines, results first:

Row | binding [1] | binding [2] | binding [3] | binding [4] | binding [5] | Binder
3 | binds | binds | binds | no binding | binds | anti-MICA VHH nanobody clone H3 (VHH) VHH: QVQLVETGGGLVQAGGSLRLSCAASGRTFSSYAMGWFRQAPGKEREFVAGISWSGGSTYYGDSVKGRFTISRDNAKNTVYLLMNSLKPEDTAVYYCAADLVRSYGSSWPSLFQFRNPEDVQDGMDYWGKGTLVTVSS
4 |  |  | binds | no binding | binds | anti-MICA VHH nanobody clone E9 (VHH) VHH: QVQLVETGGGLVQPGGSLRLSCAASGFTLEHYAIGWFRQAPGKEQEGVSCITSDGDTYYADSVKGRFTISRDNAKNTVYLQMNSLKPEDTAVYYCAADCLSSNWRTSAYWAQGTQVTVSS
